In article doi:10.1101/780460:
These are yes or no findings as the source states them, for the method shown. In cells and extracts the contact can be indirect. Binding can be weak; no strength is given.

Target: Flag-tagged SOD1^G127X (human) (UniProt P00441)
Assay: co-IP

Myc-tagged TRAF6 wild type (from UniProt Q9Y4K3 1-522)
binding: binds
